Experimental data: PubChem BioAssay AID1224830 (NIAID, 2016)

- Test: 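Host factors that control LPS-induced TNF expression in human macrophages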 (primary screen)
- Cell system: human THP-1 monocytic leukaemia cells, TNF dual-luciferase reporter clone, PMA-differentiated to macrophage-like cells
- Reagent: siRNA pool against human genes, 50 nM
- Timing: LPS for 4 h, given about 3 days after siRNA transfection
- Challenge: bacterial LPS (TLR4 ligand), 10 ng/ml
- Measurement: 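TNF firefly reporter luminescence divided by renilla, normalised to the plate median, then turned into a robust z-score for each replicate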
- Reading the numbers: TNF reporter robust z-score: higher = stronger TNF reporter response to LPS
- Hit rule: 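a well is active when its z-score exceeds 2.8 or falls below -1.5; control wells carry no call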
Here is an unselected part of about 18,000 reagents. About 2,900 of them (16%) count as active. 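Calls are made per well; low scores hint the gene aids the LPS response, high scores that it dampens it.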 A number with no mark means an inactive call. Repeated entries: four replicate wells of each siRNA pool.

gene knocked down | TNF reporter robust z-score
RSKR (GeneID 124923) | -1.51 (active)
RSKR (GeneID 124923) | -1.61 (active)
RSKR (GeneID 124923) | -1.05
SCN4A (GeneID 6329) | -0.64
SCN4A (GeneID 6329) | -0.02
SCN4A (GeneID 6329) | -0.37
SCN4A (GeneID 6329) | 0.55
SNRPE (GeneID 6635) | 0.6
SNRPE (GeneID 6635) | 0.48
SNRPE (GeneID 6635) | 0.15
SNRPE (GeneID 6635) | 0.97
GABRE (GeneID 2564) | 0.22
GABRE (GeneID 2564) | -0.76
GABRE (GeneID 2564) | -1.5
GABRE (GeneID 2564) | -0.92
MAGEB4 (GeneID 4115) | 0.1
MAGEB4 (GeneID 4115) | 1.7
MAGEB4 (GeneID 4115) | -0.06
MAGEB4 (GeneID 4115) | 0.91
RNF126 (GeneID 55658) | -0.71
RNF126 (GeneID 55658) | -0.36
RNF126 (GeneID 55658) | -1.54 (active)
RNF126 (GeneID 55658) | 1.47
IVL (GeneID 3713) | 0.03
IVL (GeneID 3713) | -0.15
IVL (GeneID 3713) | 0.34
IVL (GeneID 3713) | 0.68
CCNYL1 (GeneID 151195) | -1.02
CCNYL1 (GeneID 151195) | -0.37
CCNYL1 (GeneID 151195) | -0.84
CCNYL1 (GeneID 151195) | -1.17
WIPI2 (GeneID 26100) | -1.59 (active)
WIPI2 (GeneID 26100) | -1.44
WIPI2 (GeneID 26100) | -1.46
WIPI2 (GeneID 26100) | -1.3
CD34 (GeneID 947) | -0.27
CD34 (GeneID 947) | 0
CD34 (GeneID 947) | -0.85
CD34 (GeneID 947) | -0.17
EYA2 (GeneID 2139) | 0.84
EYA2 (GeneID 2139) | 2.62
EYA2 (GeneID 2139) | 2.07
EYA2 (GeneID 2139) | -0.34
IVD (GeneID 3712) | -1.26
IVD (GeneID 3712) | -1.01
IVD (GeneID 3712) | -1.31
IVD (GeneID 3712) | -0.83
BBOF1 (GeneID 80127) | -0.16
BBOF1 (GeneID 80127) | -1.14
BBOF1 (GeneID 80127) | -0.94
BBOF1 (GeneID 80127) | 0.19
SLFN5 (GeneID 162394) | -0.9
SLFN5 (GeneID 162394) | -0.06
SLFN5 (GeneID 162394) | -0.14
SLFN5 (GeneID 162394) | 0.22
EARS2 (GeneID 124454) | -0.63
EARS2 (GeneID 124454) | 0
EARS2 (GeneID 124454) | -0.08
EARS2 (GeneID 124454) | 0.37
ARSB (GeneID 411) | -0.55
ARSB (GeneID 411) | -0.68
ARSB (GeneID 411) | -0.23
ARSB (GeneID 411) | -0.31

Next part; the last 10 above are carried over.
gene knocked down | TNF reporter robust z-score
SLFN5 (GeneID 162394) | -0.14
SLFN5 (GeneID 162394) | 0.22
EARS2 (GeneID 124454) | -0.63
EARS2 (GeneID 124454) | 0
EARS2 (GeneID 124454) | -0.08
EARS2 (GeneID 124454) | 0.37
ARSB (GeneID 411) | -0.55
ARSB (GeneID 411) | -0.68
ARSB (GeneID 411) | -0.23
ARSB (GeneID 411) | -0.31
CCK (GeneID 885) | -1.49
CCK (GeneID 885) | -0.55
CCK (GeneID 885) | -0.24
CCK (GeneID 885) | -0.39
FASTK (GeneID 10922) | -0.95
FASTK (GeneID 10922) | -1.03
FASTK (GeneID 10922) | -0.84
FASTK (GeneID 10922) | -0.45
ERAP1 (GeneID 51752) | 2.1
ERAP1 (GeneID 51752) | -0.1
ERAP1 (GeneID 51752) | 0.24
ERAP1 (GeneID 51752) | 1.34
NFKBIL1 (GeneID 4795) | -0.03
NFKBIL1 (GeneID 4795) | 0.48
NFKBIL1 (GeneID 4795) | 0.14
NFKBIL1 (GeneID 4795) | -0.07
ABCD3 (GeneID 5825) | -1.2
ABCD3 (GeneID 5825) | -0.04
ABCD3 (GeneID 5825) | -1.13
ABCD3 (GeneID 5825) | 1.02
WHRN (GeneID 25861) | 0.23
WHRN (GeneID 25861) | 0.48
WHRN (GeneID 25861) | -0.12
WHRN (GeneID 25861) | 0.63
TOM1L2 (GeneID 146691) | 2.51
TOM1L2 (GeneID 146691) | 3.31 (active)
TOM1L2 (GeneID 146691) | 2.92 (active)
TOM1L2 (GeneID 146691) | 2.94 (active)
OR10C1 (GeneID 442194) | -0.14
OR10C1 (GeneID 442194) | 0.91
OR10C1 (GeneID 442194) | 1.11
OR10C1 (GeneID 442194) | 0.2
SLC61A1 (GeneID 84975) | -0.35
SLC61A1 (GeneID 84975) | -1.06
SLC61A1 (GeneID 84975) | -1.12
SLC61A1 (GeneID 84975) | -0.27
DIS3L (GeneID 115752) | -0.36
DIS3L (GeneID 115752) | -1.18
DIS3L (GeneID 115752) | -0.81
DIS3L (GeneID 115752) | -0.17
EPDR1 (GeneID 54749) | 1.04
EPDR1 (GeneID 54749) | 2.53
EPDR1 (GeneID 54749) | -0.82
EPDR1 (GeneID 54749) | 0.6
MARVELD3 (GeneID 91862) | 1.05
MARVELD3 (GeneID 91862) | -0.58
MARVELD3 (GeneID 91862) | -0.07
MARVELD3 (GeneID 91862) | 0.04
